# According to paper PMC5597121, “The human bitter taste receptor T2R38 is broadly tuned for bacterial compounds” (PLoS ONE, 2017):
# Chains of the proteins cited; added tags and fusions are not shown.
# UniProt P59533, whole entry A49P/I296V: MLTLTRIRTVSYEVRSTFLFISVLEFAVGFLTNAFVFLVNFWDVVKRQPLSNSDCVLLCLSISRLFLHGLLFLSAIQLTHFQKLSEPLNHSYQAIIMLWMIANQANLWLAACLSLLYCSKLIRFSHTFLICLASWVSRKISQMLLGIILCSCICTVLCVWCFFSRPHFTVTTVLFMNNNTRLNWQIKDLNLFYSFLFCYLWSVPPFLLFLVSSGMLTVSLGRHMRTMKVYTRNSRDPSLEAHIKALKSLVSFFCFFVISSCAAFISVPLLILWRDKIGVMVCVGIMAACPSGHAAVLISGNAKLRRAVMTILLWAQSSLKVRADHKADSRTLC
# Not every entry of the source has a single result; some have several. They are shown here; other results are not. An entry can have further records. Values given together differ for a reason that is not stated; they may come from other doses, times, organisms or constructs than stated.
# How the values were obtained:
# T2R38 = T2R38 (Homo sapiens, UniProt P59533, A49P/I296V); experiment: Single cell calcium imaging, Peakrapid cells (Gα16gustducin44) transiently transfected with T2R38; assay type: cell-based
# [1] = tested on: mock transfected cells (empty vector); experiment: Single cell calcium imaging, control: mock transfected (empty vector) Peakrapid cells; assay type: cell-based, human; conditions: PTC 0.1 mM, reference wells of each experiment
structure (smiles),measurement,setting,value
CSSC,surface covered by activated cells (given as fraction),"T2R38; dimethyldisulfide 0.00251189, log10[ ] -2.6, experiment 6",0.0352 and 0.0749
CCC(C)=O [2-butanone],percentage of surface covered by activated cells,"T2R38; 2 butanone 0.03, log10[ ] -1.52","5.70, 4.51, 18.44, 19.86, 9.34, 8.53%"
same,percentage of surface covered by activated cells,"T2R38; 2 butanone 0.08, log10[ ] -1.09691","5.12, 6.15, 19.65, 13.75, 12.50, 13.21%"
CC(C)C=O [2-methylpropanal],percentage of surface covered by activated cells,"T2R38; 2 méthyl propanal 0.0251189, log10[ ] -1.6","53.41, 56.76, 34.34, 35.99, 10.44, 25.45, 49.32, 57.92%"
"NC(=S)Nc1ccccc1 [PTC, phenylthiocarbamide, reference compound]",surface covered by activated cells (given as fraction),"T2R38; PTC 0.1 mM, reference wells of each experiment","0.1726, 0.3159, 0.3026, 0.2925, 0.1701, 0.2565, 0.2452, 0.2538"
same,surface covered by activated cells (given as fraction),[1],"0.002778, 0.002081, 0.004778, 0.005498, 0.003497, 0.005048, 0.006106"
CS [methylmercaptan],percentage of surface covered by activated cells,"T2R38; méthylmercaptan 0.00316228, log10[ ] -2.5","0.57, 0.68, 0.33, 0.56, 0.23, 1.70, 0.61, 1.02%"
same,percentage of surface covered by activated cells,"T2R38; méthylmercaptan 0.0075, log10[ ] -2.12494","2.27, 1.86, 1.56, 1.81, 2.33, 2.50, 3.22, 4.68%"
